Some of the results follow.
Experiments:
Test in all cases: log2 fold change, soluble protein after heating vs DMSO (PISA); higher = thermal stabilisation; K562 cells, 10 uM, 30 min; active = over 0.2 and 3.5 SD of the protein, either way, in both replicates (recomputed)
[1] = compound: COC1=CC=C(C=C1)CN2C=CC3=C2C=C(C=C3)C(=O)NO
Outline: (§1)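 K562 cells (2×10^6 cells/mL) were treated with 10 μM compound for 30 min, and aliquots were heated for 3 min over 48°C-58°C. Pooled aliquots were extracted in PBS with 0.5% NP-40 at 4°C, and the supernatant after 21,000xg for 90 min was measured by TMTpro 16plex LC-MS/MS with channel sums equalised. Reported thermal stability, relative to control samples and from duplicates, is a log2 fold change.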

Chains of the proteins cited; added tags and fusions are not shown. Lines headed by an entry give the natural chain unless they say otherwise; changes in a name come on top.
UniProt Q13308: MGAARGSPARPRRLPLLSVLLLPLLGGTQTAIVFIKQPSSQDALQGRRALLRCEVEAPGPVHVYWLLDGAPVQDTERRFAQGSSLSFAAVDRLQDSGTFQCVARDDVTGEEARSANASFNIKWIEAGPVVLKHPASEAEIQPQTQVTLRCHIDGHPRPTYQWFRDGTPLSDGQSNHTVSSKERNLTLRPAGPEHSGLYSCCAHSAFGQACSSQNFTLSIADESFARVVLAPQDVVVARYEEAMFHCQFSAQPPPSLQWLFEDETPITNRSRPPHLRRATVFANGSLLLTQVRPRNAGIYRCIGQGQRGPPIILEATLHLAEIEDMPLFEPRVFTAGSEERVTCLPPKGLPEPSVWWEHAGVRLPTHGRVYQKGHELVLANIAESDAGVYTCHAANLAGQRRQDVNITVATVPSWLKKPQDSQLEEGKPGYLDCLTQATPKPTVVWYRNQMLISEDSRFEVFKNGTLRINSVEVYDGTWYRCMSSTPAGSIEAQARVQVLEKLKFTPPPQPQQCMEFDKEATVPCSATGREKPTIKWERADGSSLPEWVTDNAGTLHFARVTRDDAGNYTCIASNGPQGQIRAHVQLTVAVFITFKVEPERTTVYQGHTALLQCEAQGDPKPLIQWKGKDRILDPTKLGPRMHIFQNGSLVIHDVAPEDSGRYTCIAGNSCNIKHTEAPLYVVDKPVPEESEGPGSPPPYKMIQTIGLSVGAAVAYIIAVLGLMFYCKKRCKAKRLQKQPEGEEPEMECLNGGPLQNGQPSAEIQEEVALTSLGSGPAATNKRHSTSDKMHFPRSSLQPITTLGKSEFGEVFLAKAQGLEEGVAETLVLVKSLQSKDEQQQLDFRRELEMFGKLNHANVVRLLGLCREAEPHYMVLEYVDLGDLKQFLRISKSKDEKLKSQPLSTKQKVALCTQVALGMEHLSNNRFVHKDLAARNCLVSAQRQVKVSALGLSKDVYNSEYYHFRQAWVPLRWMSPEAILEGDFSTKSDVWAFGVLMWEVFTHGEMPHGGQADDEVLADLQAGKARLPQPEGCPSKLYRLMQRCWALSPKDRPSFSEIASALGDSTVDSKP
UniProt P25786: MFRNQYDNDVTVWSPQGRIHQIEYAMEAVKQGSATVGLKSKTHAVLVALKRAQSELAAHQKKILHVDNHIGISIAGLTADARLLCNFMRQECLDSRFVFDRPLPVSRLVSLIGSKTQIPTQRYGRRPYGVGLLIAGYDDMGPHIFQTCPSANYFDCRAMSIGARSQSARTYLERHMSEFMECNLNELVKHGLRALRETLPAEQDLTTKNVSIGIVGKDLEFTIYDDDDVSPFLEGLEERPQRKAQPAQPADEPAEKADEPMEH
UniProt Q08623: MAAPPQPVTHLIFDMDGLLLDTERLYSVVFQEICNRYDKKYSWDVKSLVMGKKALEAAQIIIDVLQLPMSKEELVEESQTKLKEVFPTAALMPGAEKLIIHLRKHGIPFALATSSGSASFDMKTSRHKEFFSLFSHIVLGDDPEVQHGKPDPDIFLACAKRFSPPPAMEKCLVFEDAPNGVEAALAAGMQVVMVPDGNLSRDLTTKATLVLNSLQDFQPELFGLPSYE
UniProt Q6ZRP7: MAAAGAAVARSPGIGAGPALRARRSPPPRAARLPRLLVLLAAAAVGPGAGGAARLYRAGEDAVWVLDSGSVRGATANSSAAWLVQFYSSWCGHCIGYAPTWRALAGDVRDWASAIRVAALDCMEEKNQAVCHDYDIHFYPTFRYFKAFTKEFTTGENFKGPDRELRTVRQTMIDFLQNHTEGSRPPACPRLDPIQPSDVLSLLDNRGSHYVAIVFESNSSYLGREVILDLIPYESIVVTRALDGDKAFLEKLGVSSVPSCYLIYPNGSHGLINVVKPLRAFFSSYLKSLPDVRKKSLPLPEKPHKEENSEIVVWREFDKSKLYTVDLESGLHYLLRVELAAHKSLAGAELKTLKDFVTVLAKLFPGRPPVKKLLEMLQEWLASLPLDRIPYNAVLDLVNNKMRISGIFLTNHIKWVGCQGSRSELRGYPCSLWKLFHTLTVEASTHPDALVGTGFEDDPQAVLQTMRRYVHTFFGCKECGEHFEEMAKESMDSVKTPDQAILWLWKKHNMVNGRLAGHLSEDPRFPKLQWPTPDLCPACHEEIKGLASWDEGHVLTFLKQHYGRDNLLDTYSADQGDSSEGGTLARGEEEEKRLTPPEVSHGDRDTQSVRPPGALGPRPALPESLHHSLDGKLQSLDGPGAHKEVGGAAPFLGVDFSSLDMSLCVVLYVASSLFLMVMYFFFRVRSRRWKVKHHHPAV
UniProt Q96C36: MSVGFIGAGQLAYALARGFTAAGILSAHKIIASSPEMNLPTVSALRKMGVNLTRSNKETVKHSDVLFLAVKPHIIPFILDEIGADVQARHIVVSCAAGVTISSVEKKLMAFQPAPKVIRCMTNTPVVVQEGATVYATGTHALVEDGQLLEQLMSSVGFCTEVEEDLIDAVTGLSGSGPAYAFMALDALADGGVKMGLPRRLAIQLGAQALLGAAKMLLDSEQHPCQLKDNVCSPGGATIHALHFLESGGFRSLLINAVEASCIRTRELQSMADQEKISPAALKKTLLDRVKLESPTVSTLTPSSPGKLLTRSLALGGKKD
UniProt Q8TB72: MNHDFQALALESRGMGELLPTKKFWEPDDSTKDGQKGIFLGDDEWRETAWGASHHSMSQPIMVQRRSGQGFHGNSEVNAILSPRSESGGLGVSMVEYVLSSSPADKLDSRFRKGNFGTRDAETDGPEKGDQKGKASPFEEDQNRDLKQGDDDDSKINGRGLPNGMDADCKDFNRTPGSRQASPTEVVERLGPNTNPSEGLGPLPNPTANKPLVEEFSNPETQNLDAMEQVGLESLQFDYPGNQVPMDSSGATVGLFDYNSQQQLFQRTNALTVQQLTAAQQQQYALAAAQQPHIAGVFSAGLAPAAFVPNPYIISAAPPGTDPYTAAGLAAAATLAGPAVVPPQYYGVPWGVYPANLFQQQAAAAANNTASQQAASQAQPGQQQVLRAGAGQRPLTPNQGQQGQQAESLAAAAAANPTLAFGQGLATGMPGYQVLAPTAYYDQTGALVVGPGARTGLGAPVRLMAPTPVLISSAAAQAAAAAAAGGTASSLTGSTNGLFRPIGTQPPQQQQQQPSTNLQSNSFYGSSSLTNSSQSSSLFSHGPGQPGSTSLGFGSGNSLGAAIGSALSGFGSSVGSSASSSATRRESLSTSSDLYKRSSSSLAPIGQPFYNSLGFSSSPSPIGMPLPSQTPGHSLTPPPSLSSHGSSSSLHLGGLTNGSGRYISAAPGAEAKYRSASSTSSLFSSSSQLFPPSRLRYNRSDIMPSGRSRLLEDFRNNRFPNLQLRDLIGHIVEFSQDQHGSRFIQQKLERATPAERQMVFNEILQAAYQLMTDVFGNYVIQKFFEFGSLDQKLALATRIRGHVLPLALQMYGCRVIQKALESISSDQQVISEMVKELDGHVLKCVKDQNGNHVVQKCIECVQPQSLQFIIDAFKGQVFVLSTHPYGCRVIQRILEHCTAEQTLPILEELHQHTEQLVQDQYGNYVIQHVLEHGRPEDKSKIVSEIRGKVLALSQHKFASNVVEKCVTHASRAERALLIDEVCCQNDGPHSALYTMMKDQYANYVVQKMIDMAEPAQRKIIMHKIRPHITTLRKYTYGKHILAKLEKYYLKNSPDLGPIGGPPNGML
UniProt P26599: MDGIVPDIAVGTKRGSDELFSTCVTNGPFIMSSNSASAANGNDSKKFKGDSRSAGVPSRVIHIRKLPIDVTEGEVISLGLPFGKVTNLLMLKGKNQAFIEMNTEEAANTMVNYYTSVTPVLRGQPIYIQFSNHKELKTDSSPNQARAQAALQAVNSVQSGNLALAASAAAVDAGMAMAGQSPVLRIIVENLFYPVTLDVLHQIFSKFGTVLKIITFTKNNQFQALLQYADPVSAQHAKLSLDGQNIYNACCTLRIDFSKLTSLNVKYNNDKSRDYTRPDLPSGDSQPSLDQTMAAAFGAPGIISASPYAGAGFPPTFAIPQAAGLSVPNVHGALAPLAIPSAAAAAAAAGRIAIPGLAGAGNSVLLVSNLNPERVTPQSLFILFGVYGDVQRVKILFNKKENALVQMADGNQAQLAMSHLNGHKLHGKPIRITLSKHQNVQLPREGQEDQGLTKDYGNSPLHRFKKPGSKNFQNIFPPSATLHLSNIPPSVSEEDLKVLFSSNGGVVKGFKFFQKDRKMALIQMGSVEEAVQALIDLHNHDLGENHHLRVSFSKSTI
UniProt Q15269: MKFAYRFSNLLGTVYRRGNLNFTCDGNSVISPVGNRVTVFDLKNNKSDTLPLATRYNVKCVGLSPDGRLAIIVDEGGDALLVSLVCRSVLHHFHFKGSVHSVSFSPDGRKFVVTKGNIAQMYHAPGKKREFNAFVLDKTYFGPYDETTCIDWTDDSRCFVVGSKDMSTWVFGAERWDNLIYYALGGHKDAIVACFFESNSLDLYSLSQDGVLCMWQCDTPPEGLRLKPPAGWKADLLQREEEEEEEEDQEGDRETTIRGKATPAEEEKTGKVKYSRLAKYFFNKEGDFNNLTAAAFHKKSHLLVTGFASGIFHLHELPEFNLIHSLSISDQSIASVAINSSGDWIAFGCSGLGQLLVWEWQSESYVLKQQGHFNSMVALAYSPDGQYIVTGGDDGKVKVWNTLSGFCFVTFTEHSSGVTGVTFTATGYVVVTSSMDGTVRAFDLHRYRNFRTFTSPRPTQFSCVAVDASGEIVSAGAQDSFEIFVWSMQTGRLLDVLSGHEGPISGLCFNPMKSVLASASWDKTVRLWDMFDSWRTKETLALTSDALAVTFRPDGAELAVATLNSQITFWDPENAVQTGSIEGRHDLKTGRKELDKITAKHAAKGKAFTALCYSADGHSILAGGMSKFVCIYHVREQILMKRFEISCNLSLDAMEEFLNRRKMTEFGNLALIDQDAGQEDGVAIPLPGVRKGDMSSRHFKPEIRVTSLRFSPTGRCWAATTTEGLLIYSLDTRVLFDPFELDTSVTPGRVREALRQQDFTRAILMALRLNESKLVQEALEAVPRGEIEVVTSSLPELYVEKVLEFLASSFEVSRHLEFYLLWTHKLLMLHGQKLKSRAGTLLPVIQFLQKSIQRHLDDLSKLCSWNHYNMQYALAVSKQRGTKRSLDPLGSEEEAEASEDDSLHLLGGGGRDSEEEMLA
UniProt Q3MIT2: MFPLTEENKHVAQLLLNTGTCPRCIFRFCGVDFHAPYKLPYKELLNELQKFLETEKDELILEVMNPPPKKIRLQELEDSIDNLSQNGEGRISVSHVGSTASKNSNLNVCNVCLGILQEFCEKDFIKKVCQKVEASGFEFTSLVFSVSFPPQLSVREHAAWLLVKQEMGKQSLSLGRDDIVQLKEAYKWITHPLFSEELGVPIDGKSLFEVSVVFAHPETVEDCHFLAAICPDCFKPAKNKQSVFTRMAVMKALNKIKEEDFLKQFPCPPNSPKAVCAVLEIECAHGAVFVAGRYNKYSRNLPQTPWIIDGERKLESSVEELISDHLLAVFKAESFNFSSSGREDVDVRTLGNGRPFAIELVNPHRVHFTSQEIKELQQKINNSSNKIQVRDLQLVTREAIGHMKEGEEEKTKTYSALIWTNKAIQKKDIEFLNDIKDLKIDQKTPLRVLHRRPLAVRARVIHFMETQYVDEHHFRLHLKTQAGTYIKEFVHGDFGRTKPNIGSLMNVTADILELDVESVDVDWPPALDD
UniProt Q92530: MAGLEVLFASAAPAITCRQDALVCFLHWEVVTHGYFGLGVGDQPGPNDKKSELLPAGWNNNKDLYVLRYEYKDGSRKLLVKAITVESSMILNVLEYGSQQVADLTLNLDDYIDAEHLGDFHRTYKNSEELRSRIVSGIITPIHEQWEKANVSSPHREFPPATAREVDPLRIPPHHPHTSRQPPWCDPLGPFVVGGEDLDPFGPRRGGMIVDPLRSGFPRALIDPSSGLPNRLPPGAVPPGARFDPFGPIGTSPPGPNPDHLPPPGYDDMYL
UniProt Q96PZ0: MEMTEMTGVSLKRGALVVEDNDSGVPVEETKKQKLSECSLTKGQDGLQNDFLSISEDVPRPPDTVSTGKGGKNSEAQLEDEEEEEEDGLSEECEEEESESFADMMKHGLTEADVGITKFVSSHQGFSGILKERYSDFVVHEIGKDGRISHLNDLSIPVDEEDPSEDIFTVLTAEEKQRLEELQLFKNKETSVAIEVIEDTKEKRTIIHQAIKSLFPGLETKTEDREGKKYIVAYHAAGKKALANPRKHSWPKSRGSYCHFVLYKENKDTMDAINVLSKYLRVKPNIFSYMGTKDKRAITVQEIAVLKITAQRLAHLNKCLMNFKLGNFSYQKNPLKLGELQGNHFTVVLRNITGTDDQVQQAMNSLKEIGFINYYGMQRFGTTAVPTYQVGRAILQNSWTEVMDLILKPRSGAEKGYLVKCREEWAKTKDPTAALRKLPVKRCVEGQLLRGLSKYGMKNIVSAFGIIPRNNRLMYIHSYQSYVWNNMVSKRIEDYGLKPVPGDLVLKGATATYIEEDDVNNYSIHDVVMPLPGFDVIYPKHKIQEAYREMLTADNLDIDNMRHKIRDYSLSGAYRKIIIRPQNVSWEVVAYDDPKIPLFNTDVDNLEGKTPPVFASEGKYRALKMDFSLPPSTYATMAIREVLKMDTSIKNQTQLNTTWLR

filanesib = compound: CON(C)C(=O)N1N=C(c2cc(F)ccc2F)S[C@@]1(CCCN)c1ccccc1 [filanesib]
Outline: as §1

zotarolimus = compound: CO[C@H]1C[C@@H]2CC[C@@H](C)[C@@](O)(O2)C(=O)C(=O)N2CCCC[C@H]2C(=O)O[C@H]([C@H](C)C[C@@H]2CC[C@H](n3cnnn3)[C@H](OC)C2)CC(=O)[C@H](C)/C=C(\C)[C@@H](O)[C@@H](OC)C(=O)[C@H](C)C[C@H](C)/C=C/C=C/C=C/1C [zotarolimus]
Outline: as §1

idasanutlin = compound: COc1cc(C(=O)O)ccc1NC(=O)[C@@H]1N[C@@H](CC(C)(C)C)[C@](C#N)(c2ccc(Cl)cc2F)[C@H]1c1cccc(Cl)c1F [idasanutlin]
Outline: as §1

alisertib = compound: COc1cc(Nc2ncc3c(n2)-c2ccc(Cl)cc2C(c2c(F)cccc2OC)=NC3)ccc1C(=O)O [alisertib]
Outline: as §1

[2] = compound: COc1cc2nc(-c3cc(F)ccc3O)nc(N[C@@H]3CNC[C@H]3C(C)(C)O)c2cc1OC
Outline: as §1

gefitinib = compound: COc1cc2ncnc(Nc3ccc(F)c(Cl)c3)c2cc1OCCCN1CCOCC1 [gefitinib]
Outline: as §1

[3] = compound: COc1cccc2cc(-c3nc([C@H]4CC[C@H](C(=O)O)CC4)n4ncnc(N)c34)[nH]c12
Outline: as §1

lapatinib = compound: CS(=O)(=O)CCNCc1ccc(-c2ccc3ncnc(Nc4ccc(OCc5cccc(F)c5)c(Cl)c4)c3c2)o1 [lapatinib]
Outline: as §1

pictilisib = compound: CS(=O)(=O)N1CCN(Cc2cc3nc(-c4cccc5[nH]ncc45)nc(N4CCOCC4)c3s2)CC1 [pictilisib]
Outline: as §1

[4] = compound: CS(=O)(=O)c1ccc(-c2cnc(N)c(C(=O)Nc3ccccc3)n2)cc1
Outline: as §1

crizotinib = compound: C[C@@H](Oc1cc(-c2cnn(C3CCNCC3)c2)cnc1N)c1c(Cl)ccc(F)c1Cl [crizotinib]
Outline: as §1

[5] = compound: C[C@@H]1COCCN1C2=NC(=NC(=C2)C3(CC3)S(=O)(=O)C)C4=C5C=CNC5=CC=C4
Outline: as §1

[6] = compound: C[C@H](C1=CC=C(C=C1)C(=O)NC2=C3C=CNC3=NC=C2)N
Outline: as §1

duvelisib = compound: C[C@H](Nc1ncnc2nc[nH]c12)c1cc2cccc(Cl)c2c(=O)n1-c1ccccc1 [duvelisib]
Outline: as §1

gandotinib = compound: Cc1cc(Nc2cc(CN3CCOCC3)c3nc(C)c(Cc4ccc(Cl)cc4F)n3n2)n[nH]1 [gandotinib]
Outline: as §1

tozasertib = compound: Cc1cc(Nc2cc(N3CCN(C)CC3)nc(Sc3ccc(NC(=O)C4CC4)cc3)n2)n[nH]1 [tozasertib]
Outline: as §1

[7] = compound: Cc1cc(SCc2sc(-c3ccc(C(F)(F)F)cc3)nc2C)ccc1OCC(=O)O
Outline: as §1

doramapimod = compound: Cc1ccc(-n2nc(C(C)(C)C)cc2NC(=O)Nc2ccc(OCCN3CCOCC3)c3ccccc23)cc1 [doramapimod]
Outline: as §1

ispinesib = compound: Cc1ccc(C(=O)N(CCCN)[C@@H](c2nc3cc(Cl)ccc3c(=O)n2Cc2ccccc2)C(C)C)cc1 [ispinesib]
Outline: as §1

Measured: log2 fold change

PTK7 isoform 6 (UniProt Q13308)
inactive: [1] -0.096 | filanesib 0.205 | zotarolimus -0.026 | idasanutlin -0.002 | alisertib -0.128 | [2] 0.141 | gefitinib 0.01 | [3] 0.031 | lapatinib -0.035 | pictilisib 0.044 | [4] 0.029 | crizotinib 0.099 | [5] 0.135 | [6] -0.002 | duvelisib -0.021 | gandotinib -0.063 | tozasertib 0.014 | [7] -0.067 | doramapimod -0.011 | ispinesib -0.025

PSMA1 isoform 2 (UniProt P25786)
inactive: [1] -0.026 | filanesib 0.045 | zotarolimus -0.018 | idasanutlin 0.042 | alisertib -0.096 | [2] -0.051 | gefitinib -0.021 | [3] -0.009 | lapatinib 0.06 | pictilisib -0.032 | [4] -0.02 | crizotinib 0.068 | [5] -0.041 | [6] 0.062 | duvelisib -0.035 | gandotinib 0.019 | tozasertib 0.006 | [7] -0.012 | doramapimod -0.009 | ispinesib 0.039

PWP1 (UniProt Q13610)
inactive: [1] -0.07 | filanesib 0.486 | zotarolimus 0.038 | idasanutlin 0.258 | alisertib -0.131 | [2] -0.121 | gefitinib -0.106 | [3] -0.189 | lapatinib 0.149 | pictilisib -0.137 | [4] -0.04 | crizotinib 0.036 | [5] -0.583 | [6] 0.37 | duvelisib -0.277 | gandotinib 0.376 | tozasertib -0.014 | [7] -0.047 | doramapimod 0.21 | ispinesib -0.176

PUDP isoform 4 (UniProt Q08623)
inactive: [1] 0.127 | filanesib -0.042 | zotarolimus 0.01 | idasanutlin -0.012 | alisertib 0.021 | [2] -0.05 | gefitinib -0.002 | [3] 0.016 | lapatinib 0.072 | pictilisib -0.007 | [4] 0.055 | crizotinib 0.057 | [5] 0.137 | [6] -0.183 | duvelisib 0.07 | gandotinib 0.068 | tozasertib -0.028 | [7] 0.027 | doramapimod -0.043 | ispinesib 0.134

QSOX2 (UniProt Q6ZRP7)
inactive: [1] -0.001 | filanesib -0.106 | zotarolimus -0.046 | idasanutlin 0.013 | alisertib 0.013 | [2] -0.124 | gefitinib -0.061 | [3] 0.084 | lapatinib 0.021 | pictilisib 0.074 | [4] 0.027 | crizotinib 0.007 | [5] 0.095 | [6] -0.032 | duvelisib 0.054 | gandotinib -0.008 | tozasertib -0.003 | [7] -0.007 | doramapimod 0.008 | ispinesib -0.03

PYCR2 (UniProt Q96C36)
inactive: [1] 0.031 | filanesib -0.08 | zotarolimus -0.01 | idasanutlin -0.038 | alisertib -0.025 | [2] -0.026 | gefitinib 0.011 | [3] 0.035 | lapatinib 0.028 | pictilisib -0.066 | [4] -0.013 | crizotinib 0.02 | [5] 0.057 | [6] -0.039 | duvelisib 0.007 | gandotinib 0.007 | tozasertib -0.026 | [7] -0.015 | doramapimod 0.002 | ispinesib 0.048

Copied from the results shown (2 entries):
QSOX2 (UniProt Q6ZRP7)
inactive: [1] -0.001 | filanesib -0.106 | zotarolimus -0.046 | idasanutlin 0.013 | alisertib 0.013 | [2] -0.124 | gefitinib -0.061 | [3] 0.084 | lapatinib 0.021 | pictilisib 0.074 | [4] 0.027 | crizotinib 0.007 | [5] 0.095 | [6] -0.032 | duvelisib 0.054 | gandotinib -0.008 | tozasertib -0.003 | [7] -0.007 | doramapimod 0.008 | ispinesib -0.03

PYCR2 (UniProt Q96C36)
inactive: [1] 0.031 | filanesib -0.08 | zotarolimus -0.01 | idasanutlin -0.038 | alisertib -0.025 | [2] -0.026 | gefitinib 0.011 | [3] 0.035 | lapatinib 0.028 | pictilisib -0.066 | [4] -0.013 | crizotinib 0.02 | [5] 0.057 | [6] -0.039 | duvelisib 0.007 | gandotinib 0.007 | tozasertib -0.026 | [7] -0.015 | doramapimod 0.002 | ispinesib 0.048

Later entries

PUM2 (UniProt Q8TB72)
inactive: [1] -0.028 | filanesib 0.057 | zotarolimus 0.008 | idasanutlin 0.023 | alisertib 0.066 | [2] 0.014 | gefitinib -0.017 | [3] -0.016 | lapatinib 0.041 | pictilisib -0.052 | [4] -0.045 | crizotinib 0.014 | [5] -0.072 | [6] 0.053 | duvelisib 0.138 | gandotinib -0.014 | tozasertib -0.029 | [7] -0.027 | doramapimod -0.019 | ispinesib -0.071

PSMA5 (UniProt P28066)
inactive: [1] 0.018 | filanesib 0.003 | zotarolimus -0.008 | idasanutlin 0.027 | alisertib -0.05 | [2] -0.068 | gefitinib -0.018 | [3] 0.013 | lapatinib 0.05 | pictilisib -0.052 | [4] 0.006 | crizotinib 0.008 | [5] -0.059 | [6] 0.059 | duvelisib -0.001 | gandotinib 0.034 | tozasertib 0.005 | [7] 0.004 | doramapimod 0.018 | ispinesib 0.018

PXMP4 (UniProt Q9Y6I8)
inactive: [1] -0.073 | filanesib -0.098 | zotarolimus -0.049 | idasanutlin -0.065 | alisertib -0.022 | [2] -0.094 | gefitinib -0.028 | [3] 0.096 | lapatinib 0.024 | pictilisib 0.053 | [4] 0 | crizotinib 0.179 | [5] 0.051 | [6] -0.134 | duvelisib 0.035 | gandotinib 0.022 | tozasertib 0.028 | [7] 0.023 | doramapimod -0.088 | ispinesib -0.007

PTBP1 (UniProt P26599)
inactive: [1] 0.087 | filanesib 0.068 | zotarolimus 0.078 | idasanutlin 0.008 | alisertib -0.067 | [2] -0.039 | gefitinib -0.006 | [3] 0.031 | lapatinib -0.005 | pictilisib -0.032 | [4] -0.013 | crizotinib 0.068 | [5] -0.031 | [6] -0.056 | duvelisib 0.038 | gandotinib 0.018 | tozasertib 0.042 | [7] 0.086 | doramapimod -0.135 | ispinesib 0.011

PWP2 (UniProt Q15269)
inactive: [1] -0.048 | filanesib 0.226 | zotarolimus 0.076 | idasanutlin 0.082 | alisertib -0.095 | [2] 0.137 | gefitinib -0.049 | [3] -0.023 | lapatinib 0.031 | pictilisib 0.017 | [4] -0.072 | crizotinib 0.006 | [5] -0.165 | [6] 0.18 | duvelisib -0.061 | gandotinib 0.143 | tozasertib 0.058 | [7] 0.007 | doramapimod 0.068 | ispinesib 0.044

PUS10 (UniProt Q3MIT2)
inactive: [1] -0.009 | filanesib 0.071 | zotarolimus -0.078 | idasanutlin -0.215 | alisertib 0.266 | [2] -0.113 | gefitinib 0.039 | [3] -0.035 | lapatinib 0.047 | pictilisib 0.027 | [4] -0.012 | crizotinib 0.02 | [5] 0.078 | [6] -0.08 | duvelisib 0.008 | gandotinib -0.141 | tozasertib -0.067 | [7] 0.057 | doramapimod 0.024 | ispinesib 0.048

PSMF1 (UniProt Q92530)
inactive: [1] 0.035 | filanesib -0.004 | zotarolimus -0.066 | idasanutlin -0.032 | alisertib -0.025 | [2] 0.005 | gefitinib 0.022 | [3] 0.097 | lapatinib 0 | pictilisib 0.058 | [4] 0.027 | crizotinib 0.019 | [5] 0.076 | [6] 0.016 | duvelisib 0.072 | gandotinib -0.027 | tozasertib -0.069 | [7] -0.038 | doramapimod -0.029 | ispinesib 0.019

PTCD3 (UniProt Q96EY7)
inactive: [1] 0.038 | filanesib 0.026 | zotarolimus 0.131 | idasanutlin -0.174 | alisertib -0.034 | [2] -0.047 | gefitinib -0.006 | [3] -0.047 | lapatinib 0.184 | pictilisib 0.005 | [4] -0.033 | crizotinib -0.012 | [5] -0.006 | [6] 0.169 | duvelisib -0.032 | gandotinib -0.034 | tozasertib 0.019 | [7] 0.072 | doramapimod -0.013 | ispinesib -0.228

PRXL2B isoform 3 (UniProt Q8TBF2)
inactive: [1] 0.18 | filanesib -0.063 | zotarolimus -0.11 | idasanutlin -0.039 | alisertib -0.052 | [2] -0.028 | gefitinib -0.013 | [3] -0.006 | lapatinib -0.011 | pictilisib 0.034 | [4] -0.05 | crizotinib 0.063 | [5] 0.07 | [6] 0.077 | duvelisib 0.047 | gandotinib -0.006 | tozasertib -0.016 | [7] -0.011 | doramapimod -0.019 | ispinesib 0.074

PUS7 isoform 2 (UniProt Q96PZ0)
inactive: [1] -0.044 | filanesib -0.026 | zotarolimus -0.007 | idasanutlin 0.002 | alisertib -0.077 | [2] -0.007 | gefitinib 0.061 | [3] -0.03 | lapatinib -0.018 | pictilisib 0.044 | [4] -0.031 | crizotinib 0.016 | [5] -0.032 | [6] 0.028 | duvelisib 0.017 | gandotinib -0.01 | tozasertib -0.009 | [7] 0.011 | doramapimod 0.03 | ispinesib -0.012

From the supplement of paper PMC10849652
